{"source": "paper PMC12040169", "about": "(PLOS Biology, 2025)", "note": "The list shows a part of the results."}
{"tested_on": "T1, CTL2-GFP (C. trachomatis L2/434/Bu, GFP-expressing)", "T1 construct": "L2/434/Bu, GFP-expressing", "design": "species or system HeLa; Intracellular C. trachomatis growth in HeLa cells, bulk GFP fluorescence relative to DMSO", "conditions": "bulk GFP, single well; 28.5 h, 10 µM; inhibitor", "units": {"% of control remaining": "%"}}
{"smiles": "Cc1cc(C)n(C2CCN(Cc3nc4ccccc4n3C)CC2)n1", "note": "[CBK281621]", "% of control remaining": 135.885}
{"smiles": "Cc1cccc(-n2ncc3c(=O)n(CC(=O)Nc4ccccc4)cnc32)c1C", "note": "[CBK287693]", "% of control remaining": 114.413}
{"smiles": "Nn1cnn2c(SCC(=O)c3ccccc3)nnc12", "note": "[CBK263194]", "% of control remaining": 105.437}
{"smiles": "NCCN(C(=O)CCc1cc(C(F)(F)F)cc(C(F)(F)F)c1)c1ccc2c(c1)OCO2", "note": "[CBK000701T]", "% of control remaining": 56.8442}
{"smiles": "Cn1nccc1C(=O)NC(Cc1cccs1)c1ccccn1", "note": "(stereo not shown) [CBK285207]", "% of control remaining": 103.504}
{"smiles": "OCCN1CCN(c2nc(-c3cccnc3)cn3ccnc23)CC1", "note": "[CBK037887]", "% of control remaining": 146.282}
{"smiles": "COc1ccc(C(=O)N(CCC(C)C)Cc2nc(C)c(C)n2Cc2ccccc2Cl)c(OC)c1", "note": "[CBK093441]", "% of control remaining": 100}
{"smiles": "C=CCn1c(SCc2nnc(-c3ccccc3)o2)nnc1C(O)c1ccccc1", "note": "(stereo not shown) [CBK267368]", "% of control remaining": 110.087}
{"smiles": "Cc1nc(NC(=O)c2cccc(NC(=O)C3CCCO3)c2)sc1-c1n[nH]c(=S)n1C", "note": "(stereo not shown) [CBK295341]", "% of control remaining": 154.834}
{"smiles": "CCn1ncnc1CN(c1cccc(CO)c1)C1Cc2ccccc2C1", "note": "[CBK304173]", "% of control remaining": 67.5933}
{"smiles": "CN(CC(=O)Nc1ccccc1N1CCNCC1)C(=O)c1ccccc1", "note": "[CBK028287T]", "% of control remaining": 64.7169}
{"smiles": "O=[N+]([O-])c1ccc(/C=N/C23CN4CN(CN(C4)C2)C3)s1", "note": "[CBK261752]", "% of control remaining": 85.6974}
{"smiles": "Cc1ccc(S(=O)(=O)N2CCCN(CC(O)c3ccccc3)CC2)cc1", "note": "(stereo not shown) [CBK297911]", "% of control remaining": 128.947}
{"smiles": "Fc1ccc2c3c([nH]c2c1)C1(CCN(CCCOCc2ccccc2)CC1)NCC3", "note": "[CBK039858]", "% of control remaining": 100}
{"smiles": "CCOC(=O)Cc1nc2cc([N+](=O)[O-])ccc2oc1=O", "note": "[CBK015603]", "% of control remaining": 92.0593}
{"smiles": "CC(C)(C)OC(=O)N1CCC[C@@H](C(=O)c2cccnc2)C1", "note": "[CBK284284]", "% of control remaining": 83.2666}
{"smiles": "COc1cccc(-n2ccn(C(=O)CCC3CCCC3)c2=O)c1", "note": "[CBK106625]", "% of control remaining": 106.426}
{"smiles": "COc1ccc(-c2cnc3[nH]c(=O)n([C@H](CO)C(C)C)c3n2)c(OC)c1OC", "note": "[CBK065008]", "% of control remaining": 166.051}
{"smiles": "O=c1[nH]c(CN2CCCCCCC2)nc2ccccc12", "note": "[CBK283205]", "% of control remaining": 101.955}
{"smiles": "N#Cc1c(C(F)(F)F)cc(-c2ccco2)nc1SCc1ccccn1", "note": "[CBK267450]", "% of control remaining": 146.149}
{"smiles": "CC1C2CCCN2CCN1Cc1cccc(Oc2ccccc2)c1", "note": "(stereo not shown) [CBK262880]", "% of control remaining": 125.41}
{"smiles": "Cn1c(C(=O)NCc2ccccc2)cc2ccccc21", "note": "[CBK200195]", "% of control remaining": 82.7866}
{"smiles": "O=C(c1cccs1)[C@H]1CCCN(C(=O)c2cc(C3CC3)n[nH]2)C1", "note": "[CBK282411]", "% of control remaining": 141.874}
{"smiles": "Cc1cc(N2CCN(C(=O)Cc3cccs3)CC2)nc(C(C)C)n1", "note": "[CBK305562]", "% of control remaining": 97.2552}
{"smiles": "COc1nccnc1NS(=O)(=O)c1ccc(Nc2c([N+](=O)[O-])cc([N+](=O)[O-])c3nonc23)cc1", "note": "[CBK261441]", "% of control remaining": 14.5241}
{"smiles": "CC(C)[C@H]1CN(Cc2ccco2)CCN1C(=O)N1CCCCC1", "note": "[CBK284272]", "% of control remaining": 102.613}
{"smiles": "O=C(O)/C=C/c1cccc(-c2cn3ccnc3c(N3CCN(c4ccncc4)CC3)n2)c1", "note": "[CBK066326]", "% of control remaining": 102.93}
{"smiles": "O=[N+]([O-])c1ccc2c(ccn2C2CC(O)C(CO)O2)c1", "note": "(stereo not shown) [CBK201163]", "% of control remaining": 147.414}
{"smiles": "COC(=O)COc1nccnc1-c1ccc(SC)cc1", "note": "[CBK106806]", "% of control remaining": 114.038}
{"smiles": "CC1CCCCC1NC(=O)c1ncoc1-c1cccs1", "note": "(stereo not shown) [CBK283973]", "% of control remaining": 132.107}
{"smiles": "CC1CCN(S(=O)(=O)c2ccc(C(=O)NC(C(=O)O)C(C)O)cc2)CC1", "note": "(stereo not shown) [CBK297151]", "% of control remaining": 127.261}
{"smiles": "Cn1c(=O)c2[nH]c(N3CCCNCC3)nc2n(C)c1=O", "note": "[CBK270030]", "% of control remaining": 134.304}
{"smiles": "CC(NC(=O)Cc1cccc(F)c1)c1nc2cccnc2n1C(C)C", "note": "(stereo not shown) [CBK283831]", "% of control remaining": 151.781}
{"smiles": "O=c1cc(N2CCN(CC3CCOC3)CC2)c(-c2ccccc2)n[nH]1", "note": "(stereo not shown) [CBK306957]", "% of control remaining": 128.146}
{"smiles": "CC(NC(=O)OC(C)(C)C)c1nnc(SCC(=O)N(C)C)o1", "note": "(stereo not shown) [CBK269932]", "% of control remaining": 127.796}
{"smiles": "CCOC(=O)c1cnn2c(O)cc(CN3CCCc4ccccc43)nc12", "note": "[CBK305694]", "% of control remaining": 113.516}
{"smiles": "O=C(O)c1cccc(S(=O)(=O)N(CCO)CCO)c1", "note": "[CBK263221]", "% of control remaining": 106.385}
{"smiles": "O=c1c([N+](=O)[O-])c[nH]c2nc(-c3ccncc3)nn12", "note": "[CBK288531N]", "% of control remaining": 122.955}
{"smiles": "Cc1cc(C(=O)N2CCN(Cc3ccc(F)cc3Cl)CC2)no1", "note": "[CBK268126]", "% of control remaining": 132.656}
{"smiles": "O=C1NCC2(CCN(Cc3ccccc3)CC2)Oc2ccccc21", "note": "[CBK285323]", "% of control remaining": 130.344}
{"smiles": "Cc1cccc(OCCn2cncc2-c2cnn(C)c2)c1C", "note": "[CBK281497]", "% of control remaining": 122.01}
{"smiles": "N#C/C(=C/c1ccc(Sc2nc3ccccc3[nH]2)o1)c1ccc(C(=O)O)cc1", "note": "[CBK269141]", "% of control remaining": 106.098}
{"smiles": "O=C(Nc1ccccc1Cl)C1CCCN1S(=O)(=O)c1ccc(F)cc1", "note": "(stereo not shown) [CBK110161]", "% of control remaining": 100}
{"smiles": "CSc1nsc(SCC(=O)Nc2ccccc2C#N)n1", "note": "[CBK269826]", "% of control remaining": 100.425}
{"smiles": "COc1cc(CNCc2cccnc2)ccc1OCc1cccs1", "note": "[CBK270082C]", "% of control remaining": 109.028}
{"smiles": "Cc1c(-c2ccccc2)n[nH]c1C(=O)NCCCc1ccccn1", "note": "[CBK282445]", "% of control remaining": 129.303}
{"smiles": "Cc1ccc(N2C(=O)c3ccc(S(=O)(=O)c4cccc(C(=O)O)c4)cc3C2=O)c(C)c1", "note": "[CBK262783]", "% of control remaining": 100}
{"smiles": "O=C(CN1C2CCC1CC(O)(c1ccco1)C2)Nc1ccccc1F", "note": "(stereo not shown) [CBK284109]", "% of control remaining": 135.153}
{"smiles": "COc1ccc2[nH]cc(CC(=O)Nc3cc(C)nc4ccccc34)c2c1", "note": "[CBK122732]", "% of control remaining": 95.3608}
{"smiles": "O=C(c1cccc(O)c1)N1CCN(Cc2cn3ccsc3n2)CC1", "note": "[CBK305275]", "% of control remaining": 125.038}
{"smiles": "Cc1[nH]nc2c1C(c1ccc(Cl)cc1)N(CCc1c[nH]c3ccccc13)C2=O", "note": "(stereo not shown) [CBK287919]", "% of control remaining": 120.305}
{"smiles": "OC1(c2cccnc2)CCCC2CN(Cc3cc(F)ccc3F)CC21", "note": "(stereo not shown) [CBK284513]", "% of control remaining": 90.1475}
{"smiles": "c1ccc(C2=Nn3c(Cn4nnc5ccccc54)nnc3SC2)cc1", "note": "[CBK268232]", "% of control remaining": 113.205}
{"smiles": "Oc1ccc(-n2ncc(-c3ccc(Cl)cc3)n2)cc1", "note": "[CBK112794]", "% of control remaining": 110.959}
{"smiles": "CS(=O)(=O)c1ccc2nc(NC(=O)Cc3ccccc3)sc2c1", "note": "[CBK287339]", "% of control remaining": 132.567}
{"smiles": "Cn1c(CN2CCCC2)nc2cc(NC(=O)C3CCCCC3)ccc21", "note": "[CBK307418]", "% of control remaining": 102.08}
{"smiles": "COc1cc(NC(=O)CSc2nncn2C)c(OC)cc1Cl", "note": "[CBK270307]", "% of control remaining": 119.5}
{"smiles": "O=C(c1cc2c(F)cccc2[nH]1)N1CCCCC1CCN1CCCC1", "note": "(stereo not shown) [CBK281612]", "% of control remaining": 159.847}
{"smiles": "Cc1cnc2[nH]c(C3CCN(C(=O)c4cnn(C)c4C)CC3)cc2c1", "note": "[CBK284684]", "% of control remaining": 111.288}
{"smiles": "Cc1cc2c(s1)c1cnn(CC(=O)NC3CC3)c(=O)c1n2C", "note": "[CBK284246]", "% of control remaining": 149.169}
{"smiles": "CS(=O)(=O)N1CC2(CCN(Cc3ccccc3)CC2)c2ccccc21", "note": "[CBK084003]", "% of control remaining": 107.371}
{"smiles": "C[C@H](c1ccccc1)n1c(=O)[nH]c2ncc(-c3cccc4ccccc34)nc21", "note": "[CBK064241]", "% of control remaining": 102.517}
{"smiles": "O=C(Oc1ccc(/C=N/NC(=O)C2COc3ccccc3O2)cc1)c1cccnc1", "note": "(stereo not shown) [CBK262811]", "% of control remaining": 100}
{"smiles": "COc1ccccc1-c1ccnc(N[C@H]2CO[C@H]3[C@@H]2OC[C@@H]3NC(=O)C2CCCCC2)n1", "note": "[CBK289529]", "% of control remaining": 122.233}
{"smiles": "COc1ccc(CCN2CCCN(c3nccc(OCc4ccc(Cl)c(Cl)c4)n3)CC2)cc1OC", "note": "[CBK083965]", "% of control remaining": 102.763}
{"smiles": "Cc1[nH]c2c(C(=O)Nc3cccc(CN4CCOC4=O)c3)cccc2c1C", "note": "[CBK298338]", "% of control remaining": 145.12}
{"smiles": "CC(C)Cn1cnc(S(=O)(=O)N2CCN(CC(=O)NC3CC3)CC2)c1", "note": "[CBK304223]", "% of control remaining": 96.1096}
{"smiles": "CCc1ccc(-c2noc(CSc3n[nH]c(=O)n3CCCOC)n2)cc1", "note": "[CBK295656]", "% of control remaining": 139.691}
{"smiles": "CCC(=O)N(C)C(CO)c1cc(OC)ccc1Br", "note": "(stereo not shown) [CBK304156]", "% of control remaining": 139.176}
{"smiles": "CC(CC(=O)O)CC(=O)N1CCC2(CC1)NC(=O)Cc1ccccc12", "note": "(stereo not shown) [CBK047281]", "% of control remaining": 104.457}
{"smiles": "O=C(Nc1ncnc2nc[nH]c12)NC1CCCCC1", "note": "[CBK022860]", "% of control remaining": 118.087}
{"smiles": "CCOC(=O)c1cn(CC#N)c2cc(F)c(F)cc2c1=O", "note": "[CBK304211]", "% of control remaining": 111.271}
{"smiles": "CC(C)COc1ccc(-c2nonc2NC(=O)c2cccs2)cc1", "note": "[CBK299822]", "% of control remaining": 63.0959}
{"smiles": "CCN1CC2(CCN(CCOc3ccccc3)CC2)c2ccccc21", "note": "[CBK122705]", "% of control remaining": 116.174}
{"smiles": "O=C(O)c1ccc(NS(=O)(=O)c2ccc3c(c2)C(=O)c2ccccc2C3=O)cc1", "note": "[CBK299828]", "% of control remaining": 88.5023}
{"smiles": "O=C1NC2(CCCC2)N=C1c1ccc(Cl)cc1Cl", "note": "[CBK288042]", "% of control remaining": 132.884}
{"smiles": "COc1ccc(C(NC(=O)C2CCN(CCn3cnc4c3c(=O)n(C)c(=O)n4C)CC2)c2ccco2)cc1", "note": "(stereo not shown) [CBK148308]", "% of control remaining": 165.053}
{"smiles": "O=C(NCc1cccc2ccccc12)N1CCN(c2ccccc2)CC1", "note": "[CBK155175]", "% of control remaining": 132.447}
{"smiles": "c1ccc(OCCOc2nccnc2-c2cc3ccccc3s2)cc1", "note": "[CBK106787]", "% of control remaining": 116.873}
